Data taken from paper PMC7862700.
Only a part is listed here, and it is no random draw. For part of these data: At the low end of the ranking the order means little. The list shows a part of the results. For part of these data: Construct or isoform of the protein are uncertain.

Amino acid sequences for entries named in this document (tags omitted). A change or cut given only in a name is not applied to a line headed by its entry.
UniProt P32519: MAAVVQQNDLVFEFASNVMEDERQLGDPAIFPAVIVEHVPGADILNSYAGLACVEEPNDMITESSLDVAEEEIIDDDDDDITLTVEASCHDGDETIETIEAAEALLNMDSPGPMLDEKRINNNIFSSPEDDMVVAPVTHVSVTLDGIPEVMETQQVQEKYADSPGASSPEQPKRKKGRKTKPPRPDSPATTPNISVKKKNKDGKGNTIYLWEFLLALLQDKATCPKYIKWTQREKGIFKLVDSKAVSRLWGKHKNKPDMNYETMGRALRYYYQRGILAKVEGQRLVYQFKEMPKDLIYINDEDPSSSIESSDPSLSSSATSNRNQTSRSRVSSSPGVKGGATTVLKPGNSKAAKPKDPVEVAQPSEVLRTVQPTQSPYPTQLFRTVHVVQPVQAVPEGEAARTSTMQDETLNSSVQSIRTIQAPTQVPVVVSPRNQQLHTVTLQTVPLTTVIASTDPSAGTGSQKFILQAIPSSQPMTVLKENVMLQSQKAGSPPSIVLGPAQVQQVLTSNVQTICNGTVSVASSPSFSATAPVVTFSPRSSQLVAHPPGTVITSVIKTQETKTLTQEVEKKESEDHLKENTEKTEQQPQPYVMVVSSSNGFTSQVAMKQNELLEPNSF
UniProt P50549: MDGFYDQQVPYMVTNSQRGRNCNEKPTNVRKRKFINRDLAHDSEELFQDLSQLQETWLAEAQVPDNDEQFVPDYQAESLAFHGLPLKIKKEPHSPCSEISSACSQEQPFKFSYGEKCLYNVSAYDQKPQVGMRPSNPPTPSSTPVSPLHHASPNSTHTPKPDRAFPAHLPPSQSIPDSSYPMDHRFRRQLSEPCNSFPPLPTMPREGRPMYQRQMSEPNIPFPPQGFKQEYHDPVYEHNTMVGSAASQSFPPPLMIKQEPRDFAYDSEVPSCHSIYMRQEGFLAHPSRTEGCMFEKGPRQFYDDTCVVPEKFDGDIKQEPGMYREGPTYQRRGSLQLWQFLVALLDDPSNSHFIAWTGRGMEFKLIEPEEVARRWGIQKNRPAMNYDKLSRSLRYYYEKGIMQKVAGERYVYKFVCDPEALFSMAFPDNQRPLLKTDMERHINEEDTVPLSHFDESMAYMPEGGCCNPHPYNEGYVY

What was measured:
Assay in all cases: DAPPL (digital affinity profiling via proximity ligation, sequencing)
Settings in all cases: 10 mM Tris-HCl pH 7.5, 50 mM NaCl, 1 mM DTT, 4% glycerol, room temperature, 30 min; GST-TFs on glutathione beads, 16-mer random dsDNA library, 0.1% …; high values mean tight binding; double strand, one strand shown; scale: fold enrichment (6-mer frequency, TF over GST control)
[1] = target: T1, ERG (UniProt P11308)
T1 sequence: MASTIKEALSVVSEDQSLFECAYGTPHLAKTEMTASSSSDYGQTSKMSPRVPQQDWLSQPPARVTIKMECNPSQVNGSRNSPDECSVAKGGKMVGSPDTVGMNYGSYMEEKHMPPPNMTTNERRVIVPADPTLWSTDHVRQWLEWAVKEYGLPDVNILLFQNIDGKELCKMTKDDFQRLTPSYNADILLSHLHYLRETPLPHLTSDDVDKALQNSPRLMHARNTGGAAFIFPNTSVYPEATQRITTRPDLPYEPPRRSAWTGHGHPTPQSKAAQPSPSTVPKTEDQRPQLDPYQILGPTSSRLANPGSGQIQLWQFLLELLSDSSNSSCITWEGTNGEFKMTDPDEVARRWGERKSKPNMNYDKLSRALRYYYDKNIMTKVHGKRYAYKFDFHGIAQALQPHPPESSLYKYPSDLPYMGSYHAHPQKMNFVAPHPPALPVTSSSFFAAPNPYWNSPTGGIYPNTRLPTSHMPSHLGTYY

[2] = target: ELF1 (UniProt P32519)
[3] = target: T2, ELK4 (UniProt P28324-2)
T2 sequence: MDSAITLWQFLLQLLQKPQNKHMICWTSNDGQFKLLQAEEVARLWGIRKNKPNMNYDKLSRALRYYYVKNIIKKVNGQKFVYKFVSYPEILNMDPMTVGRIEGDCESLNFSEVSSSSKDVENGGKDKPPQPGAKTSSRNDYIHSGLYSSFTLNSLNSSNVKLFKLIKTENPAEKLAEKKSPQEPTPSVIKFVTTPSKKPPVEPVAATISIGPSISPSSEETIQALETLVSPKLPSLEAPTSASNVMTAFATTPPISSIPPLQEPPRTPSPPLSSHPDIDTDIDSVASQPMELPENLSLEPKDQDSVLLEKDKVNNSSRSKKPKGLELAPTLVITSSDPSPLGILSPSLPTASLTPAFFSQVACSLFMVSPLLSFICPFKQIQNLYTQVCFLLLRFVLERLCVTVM

[4] = target: T3, ETV4 (UniProt P43268)
T3 sequence: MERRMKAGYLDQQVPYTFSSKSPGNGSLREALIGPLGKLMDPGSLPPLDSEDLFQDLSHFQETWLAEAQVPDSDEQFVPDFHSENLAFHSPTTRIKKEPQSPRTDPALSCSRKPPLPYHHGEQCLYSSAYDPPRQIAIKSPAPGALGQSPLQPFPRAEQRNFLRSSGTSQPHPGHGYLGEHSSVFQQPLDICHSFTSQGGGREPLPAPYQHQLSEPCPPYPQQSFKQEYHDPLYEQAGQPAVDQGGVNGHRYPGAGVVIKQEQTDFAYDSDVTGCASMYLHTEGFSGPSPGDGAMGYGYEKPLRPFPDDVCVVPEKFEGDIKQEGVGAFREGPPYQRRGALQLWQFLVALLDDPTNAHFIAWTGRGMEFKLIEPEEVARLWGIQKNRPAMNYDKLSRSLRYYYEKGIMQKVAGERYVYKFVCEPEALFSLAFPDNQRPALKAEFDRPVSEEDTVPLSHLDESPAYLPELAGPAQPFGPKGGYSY

[5] = target: ETV1 (UniProt P50549)
[6] = target: T4, ERF (UniProt P50548)
T4 sequence: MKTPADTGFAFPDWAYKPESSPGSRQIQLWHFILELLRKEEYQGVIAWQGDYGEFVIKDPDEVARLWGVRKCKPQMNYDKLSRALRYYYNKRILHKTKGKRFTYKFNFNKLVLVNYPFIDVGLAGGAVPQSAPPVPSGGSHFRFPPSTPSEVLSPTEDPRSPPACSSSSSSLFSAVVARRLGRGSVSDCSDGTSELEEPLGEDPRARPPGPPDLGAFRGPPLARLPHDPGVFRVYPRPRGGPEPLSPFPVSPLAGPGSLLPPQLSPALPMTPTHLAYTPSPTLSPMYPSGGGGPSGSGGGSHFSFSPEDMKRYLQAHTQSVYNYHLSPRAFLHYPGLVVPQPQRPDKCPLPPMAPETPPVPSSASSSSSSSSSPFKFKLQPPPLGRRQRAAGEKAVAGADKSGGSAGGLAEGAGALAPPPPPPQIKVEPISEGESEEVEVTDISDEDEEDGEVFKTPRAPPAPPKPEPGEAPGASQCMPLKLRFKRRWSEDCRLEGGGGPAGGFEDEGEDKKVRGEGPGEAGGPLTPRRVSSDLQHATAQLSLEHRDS

| Sequence | binding signal [1] | binding signal [2] | binding signal [3] | binding signal [4] | binding signal [5] | binding signal [6] |
| --- | --- | --- | --- | --- | --- | --- |
| CGTGCA | 0.648 | 0.72 | 0.714 | 0.639 | 0.69 | 0.706 |
| GGGTGT | 0.761 | 0.736 | 0.789 | 0.72 | 0.69 | 0.774 |
| GCGGAC | 0.711 | 0.704 | 0.656 | 0.656 | 0.712 | 0.635 |
| GGAGTG | 0.434 | 0.368 | 0.446 | 0.4 | 0.433 | 0.414 |
| ACCAGA | 0.879 | 0.981 | 0.892 | 0.856 | 0.905 | 0.82 |
| AGATCG | 0.465 | 0.49 | 0.469 | 0.477 | 0.43 | 0.513 |
| AGGTCG | 0.5 | 0.454 | 0.52 | 0.524 | 0.538 | 0.526 |
| GGCGGG | 0.348 | 0.33 | 0.338 | 0.324 | 0.368 | 0.344 |
| GGTGCT | 0.965 | 0.91 | 0.782 | 0.892 | – | 0.953 |
| CCTAGT | 0.884 | 0.935 | 0.973 | 0.947 | – | – |
| GCAACG | – | 0.98 | 0.979 | 1 | 0.993 | – |
| GTGGAC | 0.846 | 0.947 | 0.924 | 0.91 | 0.914 | – |
| GAACAG | – | 0.901 | 0.998 | 0.902 | 0.908 | 0.928 |
| GGGCTG | 0.924 | 0.973 | 0.979 | 0.949 | 0.99 | – |
| TTGGAC | 0.957 | 0.979 | 0.873 | 0.943 | 0.957 | – |
| CCTGTC | – | 0.883 | 0.876 | 0.907 | 0.95 | 0.977 |
| GGATGA | – | 0.931 | 0.832 | 1.02 | – | 0.937 |
| GGAGTT | 0.446 | 0.44 | 0.437 | 0.437 | 0.449 | 0.435 |
| CAGTTT | 0.922 | 0.909 | 0.876 | 0.832 | 0.869 | – |
| AGCAGG | 0.955 | 0.868 | 0.93 | 0.898 | 0.938 | 0.854 |
| AGTGCG | 0.882 | 0.876 | 0.768 | 0.847 | 0.826 | 0.885 |
| CGTGCG | 0.636 | 0.638 | 0.646 | 0.653 | 0.695 | 0.672 |
| CGGTAC | 0.943 | 0.976 | 0.934 | 0.907 | – | 0.991 |
| AAGGGG | 0.916 | 0.884 | 0.844 | 0.94 | – | 0.982 |

Record cards, from the list above. Order of values: binding signal [1] | binding signal [2] | binding signal [3] | binding signal [4] | binding signal [5] | binding signal [6]
CGTGCA as listed: 0.648 | 0.72 | 0.714 | 0.639 | 0.69 | 0.706
ACCAGA as listed: 0.879 | 0.981 | 0.892 | 0.856 | 0.905 | 0.82
GGGCTG as listed: 0.924 | 0.973 | 0.979 | 0.949 | 0.99 | –

Continued.

| Sequence | binding signal [1] | binding signal [2] | binding signal [3] | binding signal [4] | binding signal [5] | binding signal [6] |
| --- | --- | --- | --- | --- | --- | --- |
| GAGGAA | 0.867 | 0.709 | 0.597 | 0.715 | 0.871 | 0.75 |
| CAGCAA | 0.947 | 0.972 | 0.973 | 0.893 | 0.886 | – |
| GTAGCC | 0.905 | 0.917 | 0.896 | 1.04 | – | 0.947 |
| GCTGTC | 0.86 | 0.976 | 0.938 | 0.993 | 0.9 | – |
| CAAGGA | 0.775 | 0.8 | 0.695 | 0.709 | 0.781 | 0.763 |
| GGAGAG | 0.277 | 0.26 | 0.279 | 0.251 | 0.279 | 0.289 |
| AAGACA | – | 0.984 | 0.896 | 0.953 | 0.934 | – |
| CAACGG | 0.997 | 0.987 | 1.01 | 0.969 | – | – |
| CGCGGT | 0.919 | 0.885 | 0.996 | 0.939 | – | 0.89 |
| GATCCG | – | 0.968 | 1 | 0.929 | 0.896 | 0.904 |
| GTGCAA | 0.963 | 0.985 | 1.05 | 0.953 | – | 0.957 |
| GACACA | 0.948 | 0.975 | 0.895 | 0.903 | 0.963 | 0.925 |
| GCGGAT | 0.948 | 0.794 | 0.786 | 0.883 | 0.843 | 0.881 |
| TGCGTG | 0.633 | 0.599 | 0.667 | 0.598 | 0.598 | 0.677 |
| TGGGCC | 0.918 | 0.934 | 0.863 | 0.974 | 0.899 | – |
| GCGCTA | 0.937 | 0.962 | 0.858 | 0.969 | 0.926 | – |
| GACGAA | 0.855 | 0.824 | 0.788 | 0.881 | 0.811 | – |
| TGAGTA | 0.459 | 0.44 | 0.469 | 0.413 | 0.458 | 0.457 |
| GTGAAC | 0.823 | 0.871 | 0.892 | 0.786 | 0.883 | 0.844 |
| GACGAT | 0.922 | 0.908 | 0.877 | 0.835 | 0.958 | – |
| ATAGAG | 0.849 | 0.916 | 0.941 | 0.897 | 0.878 | – |
| GACAAA | 0.992 | 0.978 | 0.971 | 0.932 | 0.94 | – |
| TGCAGG | – | 0.964 | 0.95 | 0.982 | 0.962 | – |
